According to paper PMC2852410, “Shared Active Site Architecture between the Large Subunit of Eukaryotic Primase and DNA Photolyase”:
For at least one entry, the source does not settle the construct or the ends of the probe. Tags and fusion partners may be left off the protein sequences shown.

Target: T1, PriL-CTD del381-383 (Saccharomyces cerevisiae) (UniProt P20457)
T1 sequence (looked up): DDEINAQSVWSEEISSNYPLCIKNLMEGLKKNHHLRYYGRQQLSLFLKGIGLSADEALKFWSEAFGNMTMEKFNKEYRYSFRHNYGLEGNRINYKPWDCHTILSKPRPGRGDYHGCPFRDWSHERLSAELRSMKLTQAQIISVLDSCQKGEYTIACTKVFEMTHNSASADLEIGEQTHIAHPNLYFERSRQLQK
Experiment: SPR
Settings: 0.005% P20, Buffer F: 20 mM HEPES pH 6.8, 150 mM KCl, 1 mM EDTA, 25 C, SPR in buffer F + 0.005% P20, 25 C, recombinant protein, residues 316-512, protein details: N-terminal His6, removed by TEV

Sequence	Kd (label: 5' biotin on S1)	Kd (label: 5' biotin, single-stranded DNA)
ACTTCCATTCTCCTCTCACC (double strand) [dsDNA 20mer (biotin)]	168 µM	
ACTTCCATTCTCCTCTCACC [ssDNA 20mer (biotin)]		67 µM
